Measurements published in paper PMC3140970.
No constants are given. Whether binding was seen depends on the method and setting. For some of these results: Binding seen in cells or lysates may run through a third protein. Some results given as binding are weak or reduced against the parent protein; the word gives no strength. For some of these results: Where a sequence is shown, tags or fusion partners need not be part of it.

Protein sequences, listed by entry. Tags and fused reporters are not part of them.
UniProt P50552: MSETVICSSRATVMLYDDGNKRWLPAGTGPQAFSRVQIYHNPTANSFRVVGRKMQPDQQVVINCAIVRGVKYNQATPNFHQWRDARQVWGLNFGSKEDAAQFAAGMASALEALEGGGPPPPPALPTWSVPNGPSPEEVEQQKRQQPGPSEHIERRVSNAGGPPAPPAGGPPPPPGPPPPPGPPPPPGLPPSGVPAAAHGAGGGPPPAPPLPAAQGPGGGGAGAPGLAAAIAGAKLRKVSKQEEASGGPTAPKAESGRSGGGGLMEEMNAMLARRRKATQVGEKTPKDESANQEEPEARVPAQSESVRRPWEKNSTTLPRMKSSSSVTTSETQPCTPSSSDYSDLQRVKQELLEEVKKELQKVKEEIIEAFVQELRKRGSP
UniProt Q12929: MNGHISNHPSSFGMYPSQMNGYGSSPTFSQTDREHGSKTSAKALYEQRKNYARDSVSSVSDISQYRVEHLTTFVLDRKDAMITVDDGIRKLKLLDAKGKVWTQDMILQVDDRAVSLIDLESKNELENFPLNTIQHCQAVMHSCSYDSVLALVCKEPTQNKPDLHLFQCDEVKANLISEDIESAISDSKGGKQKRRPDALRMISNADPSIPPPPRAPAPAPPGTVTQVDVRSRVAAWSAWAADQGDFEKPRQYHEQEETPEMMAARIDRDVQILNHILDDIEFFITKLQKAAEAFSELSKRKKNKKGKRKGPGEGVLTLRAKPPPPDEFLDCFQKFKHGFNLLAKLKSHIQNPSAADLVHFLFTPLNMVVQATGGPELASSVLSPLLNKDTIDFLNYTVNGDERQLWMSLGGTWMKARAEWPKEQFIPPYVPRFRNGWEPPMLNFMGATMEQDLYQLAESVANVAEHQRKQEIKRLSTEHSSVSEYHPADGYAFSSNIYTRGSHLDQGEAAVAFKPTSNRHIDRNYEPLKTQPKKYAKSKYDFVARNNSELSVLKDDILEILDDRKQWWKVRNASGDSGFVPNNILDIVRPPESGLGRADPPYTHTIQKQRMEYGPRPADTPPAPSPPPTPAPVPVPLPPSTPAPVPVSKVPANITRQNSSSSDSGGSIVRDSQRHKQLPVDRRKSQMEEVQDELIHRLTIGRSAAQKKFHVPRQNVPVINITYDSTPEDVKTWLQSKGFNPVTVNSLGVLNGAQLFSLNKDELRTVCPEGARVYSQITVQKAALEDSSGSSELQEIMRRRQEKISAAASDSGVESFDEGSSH

How the values were obtained:
[1] = target: VASP, endogenous in HeLa cells (human (endogenous in HeLa)) (UniProt P50552); experiment: co-IP; HeLa cell lysates (1 mg) immunoprecipitated with anti-VASP or control antibodies, immunoblotted; also in cells treated with scrambled oligo or knocked down for Eps8
[2] = target: T1, GST-IRSp53-SH3 (UniProt Q9UQB8); experiment: far-Western, overlay or dot blot; 10 pmoles of His-IRSp53, GST-IRSp53-SH3 or BSA spotted onto nitrocellulose, incubated with increasing concentrations of purified VASP; anti-VASP immunoblot; fraction bound against total VASP; apparent dissociation constant; both purified
T1 sequence: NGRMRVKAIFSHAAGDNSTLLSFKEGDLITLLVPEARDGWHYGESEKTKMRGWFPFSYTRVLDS

[3] = target: His-IRSp53 (UniProt Q9UQB8); experiment: far-Western, overlay or dot blot; competition: 10 pmoles of His-IRSp53 spotted onto nitrocellulose, incubated with 100 nM purified VASP or BSA, without or with increasing amounts of GST-PPP or GST; immunoblot; both purified

Row | binding [1] | binding [2] | binding [3] | Substance
1 | no binding | – | – | Eps8, endogenous in HeLa cells (from UniProt Q12929 1-822)
2 | binds | – | – | IRSp53 in HeLa cell lysate (from UniProt Q9UQB8 1-552)
3 | – | binds | binds | VASP, recombinant, cleaved from GST (from UniProt P50552 1-380)
